Test results from the supplement of paper PMC10849652.
The other results are listed elsewhere or left out.

Amino acid sequences for entries named in this document (tags omitted). A change or cut given only in a name is not applied to a line headed by its entry.
UniProt P14868: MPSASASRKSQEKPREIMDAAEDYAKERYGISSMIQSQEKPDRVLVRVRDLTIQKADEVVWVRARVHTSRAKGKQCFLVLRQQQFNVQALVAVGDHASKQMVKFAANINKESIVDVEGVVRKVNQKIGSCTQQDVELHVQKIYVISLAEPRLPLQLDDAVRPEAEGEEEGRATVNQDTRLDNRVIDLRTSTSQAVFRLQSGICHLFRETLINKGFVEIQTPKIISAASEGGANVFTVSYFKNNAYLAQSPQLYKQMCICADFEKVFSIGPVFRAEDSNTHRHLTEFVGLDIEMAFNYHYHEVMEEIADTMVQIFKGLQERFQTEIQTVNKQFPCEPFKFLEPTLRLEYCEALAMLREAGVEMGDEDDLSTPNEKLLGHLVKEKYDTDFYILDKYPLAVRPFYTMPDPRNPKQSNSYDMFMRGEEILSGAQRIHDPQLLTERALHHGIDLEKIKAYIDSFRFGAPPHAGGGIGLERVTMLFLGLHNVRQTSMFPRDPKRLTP
UniProt Q9NWV4: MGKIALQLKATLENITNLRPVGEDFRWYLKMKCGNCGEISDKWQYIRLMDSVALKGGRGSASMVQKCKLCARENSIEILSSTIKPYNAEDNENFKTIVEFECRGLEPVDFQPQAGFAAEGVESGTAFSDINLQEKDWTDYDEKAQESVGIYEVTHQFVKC
UniProt Q92466: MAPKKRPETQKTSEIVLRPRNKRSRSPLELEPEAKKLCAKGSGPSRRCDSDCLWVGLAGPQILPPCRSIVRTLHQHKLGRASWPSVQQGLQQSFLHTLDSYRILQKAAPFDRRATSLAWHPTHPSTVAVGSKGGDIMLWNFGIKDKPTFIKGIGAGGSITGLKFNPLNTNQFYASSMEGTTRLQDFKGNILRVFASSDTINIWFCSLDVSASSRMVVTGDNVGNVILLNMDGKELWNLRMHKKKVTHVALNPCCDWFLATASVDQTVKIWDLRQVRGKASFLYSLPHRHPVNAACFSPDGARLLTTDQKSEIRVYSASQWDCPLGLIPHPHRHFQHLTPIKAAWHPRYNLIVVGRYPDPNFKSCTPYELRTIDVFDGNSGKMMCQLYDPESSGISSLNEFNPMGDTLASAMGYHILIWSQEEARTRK
UniProt Q96EP5: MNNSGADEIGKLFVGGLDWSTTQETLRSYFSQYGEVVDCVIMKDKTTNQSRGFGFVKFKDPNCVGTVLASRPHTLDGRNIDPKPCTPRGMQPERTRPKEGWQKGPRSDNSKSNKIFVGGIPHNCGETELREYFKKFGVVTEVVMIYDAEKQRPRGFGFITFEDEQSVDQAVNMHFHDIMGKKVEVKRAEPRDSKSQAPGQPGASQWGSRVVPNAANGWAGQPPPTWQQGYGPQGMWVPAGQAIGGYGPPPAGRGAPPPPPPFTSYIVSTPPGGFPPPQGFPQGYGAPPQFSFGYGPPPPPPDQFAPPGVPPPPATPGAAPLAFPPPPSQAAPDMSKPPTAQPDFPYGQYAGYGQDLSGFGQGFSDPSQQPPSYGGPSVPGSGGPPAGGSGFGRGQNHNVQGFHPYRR
UniProt Q9GZR7: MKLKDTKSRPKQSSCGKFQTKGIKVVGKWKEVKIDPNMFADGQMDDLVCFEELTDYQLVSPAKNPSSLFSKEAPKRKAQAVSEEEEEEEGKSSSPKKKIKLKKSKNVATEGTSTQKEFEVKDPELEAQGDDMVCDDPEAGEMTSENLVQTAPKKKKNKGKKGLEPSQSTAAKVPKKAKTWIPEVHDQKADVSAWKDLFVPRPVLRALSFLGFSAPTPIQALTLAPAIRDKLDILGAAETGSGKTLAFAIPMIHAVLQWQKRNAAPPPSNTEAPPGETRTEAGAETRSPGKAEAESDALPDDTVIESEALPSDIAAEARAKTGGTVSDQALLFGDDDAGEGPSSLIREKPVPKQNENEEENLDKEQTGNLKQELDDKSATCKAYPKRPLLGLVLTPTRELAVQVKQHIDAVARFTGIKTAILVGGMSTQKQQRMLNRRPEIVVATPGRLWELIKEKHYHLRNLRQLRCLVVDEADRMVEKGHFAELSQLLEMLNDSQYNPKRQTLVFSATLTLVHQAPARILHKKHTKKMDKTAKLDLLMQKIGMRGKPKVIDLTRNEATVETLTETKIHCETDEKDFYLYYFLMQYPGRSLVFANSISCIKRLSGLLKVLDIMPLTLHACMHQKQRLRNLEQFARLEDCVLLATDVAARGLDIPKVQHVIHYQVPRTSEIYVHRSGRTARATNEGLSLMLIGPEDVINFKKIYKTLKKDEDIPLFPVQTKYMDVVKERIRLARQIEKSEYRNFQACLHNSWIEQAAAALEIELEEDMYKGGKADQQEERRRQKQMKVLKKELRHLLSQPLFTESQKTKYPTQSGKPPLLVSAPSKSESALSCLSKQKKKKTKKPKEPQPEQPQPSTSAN
UniProt Q7L014: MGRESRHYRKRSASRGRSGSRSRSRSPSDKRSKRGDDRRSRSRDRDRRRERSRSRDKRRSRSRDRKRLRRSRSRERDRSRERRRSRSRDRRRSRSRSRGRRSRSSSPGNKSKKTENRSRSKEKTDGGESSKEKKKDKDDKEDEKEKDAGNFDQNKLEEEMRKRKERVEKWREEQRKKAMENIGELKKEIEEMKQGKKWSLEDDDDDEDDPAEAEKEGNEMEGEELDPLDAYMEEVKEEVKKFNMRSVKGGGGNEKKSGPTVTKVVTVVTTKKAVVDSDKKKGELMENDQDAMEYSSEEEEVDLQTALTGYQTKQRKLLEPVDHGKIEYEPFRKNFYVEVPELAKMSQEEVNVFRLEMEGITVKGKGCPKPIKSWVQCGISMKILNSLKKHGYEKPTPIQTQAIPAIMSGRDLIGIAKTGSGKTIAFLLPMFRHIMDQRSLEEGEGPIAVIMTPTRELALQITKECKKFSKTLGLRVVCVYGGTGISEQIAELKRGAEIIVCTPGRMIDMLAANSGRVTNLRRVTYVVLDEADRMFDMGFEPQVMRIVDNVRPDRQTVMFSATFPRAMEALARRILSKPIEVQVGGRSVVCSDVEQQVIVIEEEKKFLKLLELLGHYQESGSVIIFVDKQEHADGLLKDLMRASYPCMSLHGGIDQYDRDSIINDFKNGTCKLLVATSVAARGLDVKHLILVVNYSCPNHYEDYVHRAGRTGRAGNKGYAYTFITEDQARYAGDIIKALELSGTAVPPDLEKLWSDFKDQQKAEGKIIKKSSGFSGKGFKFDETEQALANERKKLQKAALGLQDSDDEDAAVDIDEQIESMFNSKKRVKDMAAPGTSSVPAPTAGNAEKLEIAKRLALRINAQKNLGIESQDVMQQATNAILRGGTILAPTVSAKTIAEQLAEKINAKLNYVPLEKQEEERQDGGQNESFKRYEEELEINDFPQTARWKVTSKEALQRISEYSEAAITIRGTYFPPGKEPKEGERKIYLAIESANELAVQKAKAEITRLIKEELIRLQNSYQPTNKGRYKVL
UniProt Q9UHI6: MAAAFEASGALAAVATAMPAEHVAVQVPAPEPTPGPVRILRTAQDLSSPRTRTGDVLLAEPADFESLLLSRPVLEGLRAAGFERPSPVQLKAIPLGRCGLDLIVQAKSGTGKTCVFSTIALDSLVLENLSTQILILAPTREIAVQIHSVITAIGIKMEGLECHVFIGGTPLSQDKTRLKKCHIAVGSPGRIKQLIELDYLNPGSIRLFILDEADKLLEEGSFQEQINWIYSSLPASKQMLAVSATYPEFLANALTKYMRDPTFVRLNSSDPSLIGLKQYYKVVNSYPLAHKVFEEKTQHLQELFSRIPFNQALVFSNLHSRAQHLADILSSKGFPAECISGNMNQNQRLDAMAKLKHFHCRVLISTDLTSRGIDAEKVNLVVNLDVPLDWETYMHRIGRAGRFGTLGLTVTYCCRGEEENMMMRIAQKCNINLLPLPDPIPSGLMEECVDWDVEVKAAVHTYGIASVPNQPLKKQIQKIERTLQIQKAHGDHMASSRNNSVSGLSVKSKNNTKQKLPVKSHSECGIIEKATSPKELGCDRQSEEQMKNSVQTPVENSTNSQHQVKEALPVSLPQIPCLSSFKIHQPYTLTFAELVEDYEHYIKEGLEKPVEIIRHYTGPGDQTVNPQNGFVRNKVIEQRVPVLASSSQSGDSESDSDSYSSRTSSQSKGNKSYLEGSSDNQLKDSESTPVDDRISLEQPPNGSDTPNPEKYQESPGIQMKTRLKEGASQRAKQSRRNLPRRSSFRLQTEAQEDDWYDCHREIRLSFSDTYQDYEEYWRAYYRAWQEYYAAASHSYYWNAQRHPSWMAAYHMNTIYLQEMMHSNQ
UniProt Q9UJU6: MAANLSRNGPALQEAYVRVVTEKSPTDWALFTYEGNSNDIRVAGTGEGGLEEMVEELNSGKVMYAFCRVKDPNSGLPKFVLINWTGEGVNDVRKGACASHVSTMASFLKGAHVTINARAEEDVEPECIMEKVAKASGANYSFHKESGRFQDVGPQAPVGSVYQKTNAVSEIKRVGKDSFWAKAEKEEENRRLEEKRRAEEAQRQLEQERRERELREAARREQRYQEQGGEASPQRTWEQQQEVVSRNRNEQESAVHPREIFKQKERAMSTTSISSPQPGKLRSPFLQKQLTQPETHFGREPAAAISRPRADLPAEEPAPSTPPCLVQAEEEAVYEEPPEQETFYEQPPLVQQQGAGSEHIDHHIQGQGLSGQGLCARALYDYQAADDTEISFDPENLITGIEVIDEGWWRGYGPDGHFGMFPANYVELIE

Assays:
Test in all cases: log2 fold change, soluble protein after heating vs DMSO (PISA); higher = thermal stabilisation; K562 lysate, 10 uM; active = over 0.2 and 3.5 SD of the protein, either way, in both replicates (recomputed)
[1] = compound: CN1CC[C@H](c2c(O)cc(O)c3c(=O)cc(-c4ccccc4Cl)oc23)[C@H](O)C1 [alvocidib]
Method in brief: (§1)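 K562 pellets were dounce-homogenised in PBS pH 7.4 containing 1 mM MgCl2, and the crude extract, at 1 mg/mL protein, was exposed to 10 μM compound for 30 min. Aliquots were heated for 3 min across 48°C-58°C, pooled, brought to 0.5% NP-40 at 4°C and spun at 21,000xg for 90 min, with the supernatant taken as soluble protein. TMTpro 16plex LC-MS/MS with equalised channel sums quantified that protein. Values are log-two fold changes in thermal stability relative to solvent controls, taken from duplicates.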

[2] = compound: CN1CCc2c(c3ccccc3n2Cc2ccc(C(=O)NO)cc2)C1 [Tubastatin A]
Method in brief: as §1

[3] = compound: CNC(=O)C1=CC=CC=C1NC2=NC(=NC=C2Cl)NC3=C(C=C(C=C3)N4CCOCC4)OC
Method in brief: as §1

[4] = compound: CNC(=O)c1ccc(Nc2ncc(C(F)(F)F)c(NCc3nccnc3N(C)S(C)(=O)=O)n2)cc1 [defactinib]
Method in brief: as §1

[5] = compound: CNc1nc(-c2ccc3c(N)n[nH]c3c2)cc(N2C[C@@H](C(=O)NC3CCCCC3)CC[C@H]2C)n1
Method in brief: as §1

[6] = compound: COC(=O)N[C@@H](C)CNc1nccc(-c2cn(C(C)C)nc2-c2cc(Cl)cc(NS(C)(=O)=O)c2F)n1 [encorafenib]
Method in brief: as §1

[7] = compound: COC(=O)[C@H](CCSC)NC(=O)C1=C(C=C(C=C1)NC[C@H](CS)N)C2=CC=CC=C2
Method in brief: as §1

[8] = compound: COc1cc(Nc2ncc3c(n2)-c2ccc(Cl)cc2C(c2c(F)cccc2OC)=NC3)ccc1C(=O)O [alisertib]
Method in brief: as §1

[9] = compound: COc1cc2nc(-c3cc(F)ccc3O)nc(N[C@@H]3CNC[C@H]3C(C)(C)O)c2cc1OC
Method in brief: as §1

[10] = compound: COc1cc2ncnc(Nc3ccc(F)c(Cl)c3)c2cc1OCCCN1CCOCC1 [gefitinib]
Method in brief: as §1

[11] = compound: CS(=O)(=O)CCNCc1ccc(-c2ccc3ncnc(Nc4ccc(OCc5cccc(F)c5)c(Cl)c4)c3c2)o1 [lapatinib]
Method in brief: as §1

[12] = compound: CS(=O)(=O)N1CCN(Cc2cc3nc(-c4cccc5[nH]ncc45)nc(N4CCOCC4)c3s2)CC1 [pictilisib]
Method in brief: as §1

[13] = compound: C[C@@H](Oc1cc(-c2cnn(C3CCNCC3)c2)cnc1N)c1c(Cl)ccc(F)c1Cl [crizotinib]
Method in brief: as §1

[14] = compound: C[C@H](C1=CC=C(C=C1)C(=O)NC2=C3C=CNC3=NC=C2)N
Method in brief: as §1

[15] = compound: C[C@H](Nc1ncnc2nc[nH]c12)c1cc2cccc(Cl)c2c(=O)n1-c1ccccc1 [duvelisib]
Method in brief: as §1

[16] = compound: Cc1cc(Nc2cc(CN3CCOCC3)c3nc(C)c(Cc4ccc(Cl)cc4F)n3n2)n[nH]1 [gandotinib]
Method in brief: as §1

[17] = compound: Cc1cc(Nc2cc(N3CCN(C)CC3)nc(Sc3ccc(NC(=O)C4CC4)cc3)n2)n[nH]1 [tozasertib]
Method in brief: as §1

[18] = compound: Cc1ccc(-n2nc(C(C)(C)C)cc2NC(=O)Nc2ccc(OCCN3CCOCC3)c3ccccc23)cc1 [doramapimod]
Method in brief: as §1

[19] = compound: Cc1ccc(NC(=O)c2ccc(CN3CC[C@H](N(C)C)C3)c(C(F)(F)F)c2)cc1Nc1nccc(-c2cncnc2)n1 [bafetinib]
Method in brief: as §1

[20] = compound: Cc1cccc(CC(=O)N2CCc3c2ccc(-c2cn(C)c4ncnc(N)c24)c3F)n1
Method in brief: as §1

Measured: log2 fold change

DARS (UniProt P14868)
inactive: [1] 0.012 | [2] -0.119 | [3] -0.012 | [4] 0.012 | [5] -0.061 | [6] 0.028 | [7] 0.049 | [8] 0.038 | [9] 0.003 | [10] -0.014 | [11] 0.002 | [12] 0 | [13] -0.033 | [14] -0.036 | [15] 0 | [16] -0.081 | [17] 0.011 | [18] 0.015 | [19] -0.011 | [20] 0.008

CZIB (UniProt Q9NWV4)
inactive: [1] 0.001 | [2] 0.033 | [3] 0.001 | [4] -0.022 | [5] -0.031 | [6] 0 | [7] -0.091 | [8] -0.016 | [9] -0.042 | [10] -0.076 | [11] 0.025 | [12] 0.027 | [13] 0.08 | [14] 0.058 | [15] 0.028 | [16] 0 | [17] 0 | [18] -0.017 | [19] 0 | [20] -0.044

DDB2 (UniProt Q92466)
inactive: [1] 0 | [2] 0.06 | [3] 0.041 | [5] 0.069 | [6] 0.079 | [7] -0.065 | [8] 0.045 | [9] 0.055 | [10] -0.131 | [11] -0.03 | [12] -0.025 | [13] -0.025 | [14] -0.01 | [15] 0.014 | [16] 0.046 | [17] -0.026 | [18] 0.05 | [19] 0.023 | [20] 0.008
active: [4] 0.262

DAZAP1 (UniProt Q96EP5)
inactive: [1] -0.027 | [2] 0.042 | [3] -0.026 | [4] -0.039 | [5] 0.058 | [6] -0.018 | [7] -0.045 | [8] 0.009 | [9] -0.004 | [10] 0.034 | [11] 0.017 | [12] -0.043 | [13] 0.073 | [14] 0.035 | [15] 0.015 | [16] 0 | [17] 0.064 | [18] 0.003 | [19] 0.243 | [20] -0.04

DDX24 (UniProt Q9GZR7)
inactive: [1] 0.039 | [2] -0.043 | [3] -0.024 | [4] 0.018 | [5] 0.044 | [6] 0.014 | [7] -0.002 | [8] 0.029 | [9] -0.035 | [10] 0.013 | [11] 0.021 | [12] 0.013 | [13] 0.007 | [14] -0.032 | [15] 0.002 | [16] -0.02 | [17] -0.032 | [18] -0.08 | [19] -0.084 | [20] 0.056

DDX46 (UniProt Q7L014)
inactive: [1] -0.036 | [2] -0.043 | [3] 0.007 | [4] 0.012 | [5] -0.006 | [6] 0.009 | [7] 0.085 | [8] 0.019 | [9] -0.013 | [10] -0.01 | [11] 0.009 | [12] 0.003 | [13] -0.041 | [14] -0.07 | [15] -0.046 | [16] -0.025 | [17] 0.005 | [18] 0.056 | [19] -0.021 | [20] 0.067

DDX20 (UniProt Q9UHI6)
inactive: [1] 0.042 | [2] -0.213 | [3] -0.001 | [4] -0.03 | [5] -0.026 | [6] 0.076 | [7] 0.01 | [8] 0.016 | [9] -0.006 | [10] 0.025 | [11] -0.041 | [12] 0.024 | [13] -0.088 | [14] 0.029 | [15] 0.008 | [16] -0.137 | [17] -0.065 | [18] 0.015 | [19] -0.016 | [20] 0.054

DBNL isoform 3 (UniProt Q9UJU6)
inactive: [1] -0.017 | [2] 0.027 | [3] -0.019 | [4] 0.034 | [5] 0.023 | [6] -0.019 | [7] -0.021 | [8] -0.026 | [9] 0.018 | [10] 0.009 | [11] 0.01 | [12] 0.002 | [13] 0.053 | [14] -0.045 | [15] 0.011 | [16] 0.036 | [17] 0.007 | [18] -0.069 | [19] 0.034 | [20] 0.029
